Some of the results follow. Repeats in this data set agree poorly, so a single value says little.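 Researchers measured free-swimming zebrafish larvae's O-bend response probability to dark flashes (naive: first five; training: remaining flashes of four 60-flash blocks; test: later 60-flash block) and OMR turning toward alternating leftward/rightward LED motion. Six treated larvae were compared to sixty 0.1% DMSO controls, with |SSMD|≥2 marking a hit.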
Legend:
Details in all cases: 10 µM; pre-incubation: 30-90 min
[1] = tested on: Danio rerio larvae (5 dpf, TLF); experiment: OMR-Perf (SSMD vs DMSO vehicle); higher = higher than vehicle (e.g. higher dark-flash O-bend response probability, or better optomotor performance)
[2] = tested on: Danio rerio larvae (5 dpf, TLF); experiment: Prob-Test (SSMD vs DMSO vehicle); higher = higher than vehicle (e.g. higher dark-flash O-bend response probability, or better optomotor performance)
[3] = tested on: Danio rerio larvae (5 dpf, TLF); experiment: Prob-Naive (SSMD vs DMSO vehicle); higher = higher than vehicle (e.g. higher dark-flash O-bend response probability, or better optomotor performance)
[4] = tested on: Danio rerio larvae (5 dpf, TLF); experiment: Prob-Train (SSMD vs DMSO vehicle); higher = higher than vehicle (e.g. higher dark-flash O-bend response probability, or better optomotor performance)

SMILES	OMR-Perf [1]	Prob-Test [2]	Prob-Naive [3]	Prob-Train [4]
CCN1/C(=C/C(C)=O)Sc2ccc(OC)cc21	0.212	0.308	0.135	0.235
Nc1nc(N)c(N=O)c(OCC2CCCCC2)n1	-0.242	0.0452	0.0457	-0.222
O=c1cc(-c2ccc(O)cc2)oc2cc(O)cc(O)c12 [Apigenin]	-0.352	-0.258	-0.422	-0.193
C[C@H]1OC(O)[C@H](O)[C@H](O)[C@H]1O.O (stereo partly drawn) [L-(+)-Rhamnose Monohydrate]	0.0693	0.479	0.285	0.135
O=c1[nH]cnc2c1ncn2[C@H]1CC[C@@H](CO)O1 [Didanosine]	-0.355	0.133	-0.0542	-0.0881
Cc1cccc(-c2[nH]c(C(C)(C)C)nc2-c2ccc3c(c2)OCO3)n1	-0.769	-0.817	-0.258	-0.54
NC1=N[C@@]2(c3cc(NC(=O)c4ccc(F)cn4)ccc3F)COC[C@@H]2CS1	-0.267	0.194	-0.385	0.425
Cl.c1ccc2c(c1)CCCC2C1=NCCN1 (stereo not given) [Tetrahydrozoline HCl]	-0.112	-0.147	-0.323	-0.177
Nc1ccn([C@@H]2O[C@H](CO)[C@@H](O)[C@H]2O)c(=O)n1 [Cytarabine]	0.296	0.114	-0.205	0.263
CC(=O)NCC(=O)N1[C@H]2CC[C@H]1c1cc(Nc3ncc(C(F)(F)F)c(NC4CCC4)n3)ccc12	-0.303	0.551	-0.193	0.493
CC(=O)NC[C@H]1CN(c2ccc(N3CCOCC3)c(F)c2)C(=O)O1 [Linezolid]	0.408	0.441	-0.341	0.198
Cc1nc(N)sc1-c1ccnc(Nc2ccc(N3CCOCC3)cc2)n1	0.193	0.19	0.113	0.237
CC(N)C12CC3CC(CC(C3)C1)C2 (stereo not given) [Rimantadine]	-0.331	-0.444	-0.265	0.0497
CC(C)(Oc1ccc(C2CC2(Cl)Cl)cc1)C(=O)O (stereo not given) [Ciprofibrate]	-0.178	-0.0526	-0.133	-0.383
C=CC(=O)Nc1cccc(Sc2nc(Nc3ccc(N4CCN(C)CC4)cc3)ncc2Cl)c1	-0.0495	-0.408	-0.043	-0.195
Cl.O=C(OCC(O)CO)c1ccccc1Nc1ccnc2cc(Cl)ccc12 (stereo not given) [Glafenine HCl]	-0.416	-1.12	-0.333	-0.915
Cc1[nH]c(/C=C2\C(=O)Nc3ccc(S(=O)(=O)Cc4c(Cl)cccc4Cl)cc32)c(C)c1C(=O)N1CCC[C@@H]1CN1CCCC1	0.76	0.476	0.437	0.0921
Nc1nccc(Oc2ccc(NC(=O)c3c[nH]cc(-c4ccc(F)cc4)c3=O)cc2F)c1Cl	-0.454	-0.66	0.289	0.016
COc1cc2nc(N3CCN(C(=O)c4ccco4)CC3)nc(N)c2cc1OC.Cl [Prazosin HCl]	-0.651	-0.716	-0.268	-0.732
CN1CCN(S(=O)(=O)c2ccc(-c3cnc(N)c(C(=O)Nc4cccnc4)n3)cc2)CC1	0.345	-0.501	-0.102	-0.0679
NC[C@@H]1O[C@H](O[C@H]2[C@@H](O)[C@H](O[C@@H]3[C@@H](O)[C@H](N)C[C@@H](N)[C@H]3O[C@H]3O[C@@H](CO)[C@@H](O)[C@H](O)[C@H]3N)O[C@@H]2CO)[C@H](N)[C@@H](O)[C@@H]1O.O=S(=O)(O)O [Paromomycin Sulfate]	-0.063	0.119	0.0603	-0.309
CC(=C(CCOP(=O)(O)O)SC(=O)c1ccccc1)N(C=O)Cc1cnc(C)nc1N [Benfotiamine]	0.334	0.211	0.457	0.54
CC[C@H]1OC(=O)C[C@@H](O)[C@H](C)[C@@H](O[C@H]2O[C@H](C)[C@@H](O[C@H]3C[C@@](C)(O)[C@@H](O)[C@H](C)O3)[C@H](N(C)C)[C@H]2O)[C@@H](CC=O)C[C@@H](C)C(=O)/C=C/C(C)=C/[C@@H]1CO[C@@H]1O[C@H](C)[C@@H](O)[C@@H](OC)[C@H]1OC.O=C(O)[C@H](O)[C@@H](O)C(=O)O [Tylosin tartrate]	0.0202	-0.112	0.478	-0.0204
CN1C2CCCC1CC(NC(=O)c1nn(C)c3ccccc13)C2.Cl (stereo not given) [Granisetron HCl]	-0.191	0.233	-0.413	0.199
CN1CCCC(n2nc(Cc3ccc(Cl)cc3)c3ccccc3c2=O)CC1.Cl (stereo not given) [Azelastine HCl]	-0.357	-0.762	0.374	-0.474

SMILES	OMR-Perf [1]	Prob-Test [2]	Prob-Naive [3]	Prob-Train [4]
CCOC(=O)C(C)(C)Oc1ccc(Cl)cc1 [Clofibrate (Atromid-S)]	-0.968	-0.282	-0.818	-2.64
OC(CC1c2ccccc2-c2cncn21)C1CCCCC1 (stereo not given)	0.0305	-0.306	-0.112	-0.412
N#Cc1c(Oc2ccc(F)c(NC(=O)Cc3cccc(C(F)(F)F)c3)c2)ccc2nc(NC(=O)C3CC3)sc12	0.025	0.513	0.227	0.553
CC(=O)O[C@@]1(C(C)=O)CC[C@H]2[C@@H]3C=C(C)C4=CC(=O)CC[C@]4(C)[C@@H]3CC[C@@]21C [Megestrol Acetate]	-0.292	-0.429	0.149	-0.529
O=C(N[C@H](CO)[C@H](O)c1ccc([N+](=O)[O-])cc1)C(Cl)Cl [Chloramphenicol]	1.15	0.562	0.255	1.04
CCNC(=O)c1noc(-c2cc(C(C)C)c(O)cc2O)c1-c1ccc(CN2CCOCC2)cc1	0.142	-0.000572	-0.214	0.323
O=C(c1cccc(Cl)c1F)N1CCN(Cc2cccc(Nc3nccs3)n2)CC1	-0.0925	-0.853	-0.212	0.05
O=C(/C=C/c1ccc(O)c(O)c1)OCCc1ccccc1 [Caffeic Acid Phenethyl Ester]	0.0694	0.0901	0.297	-0.393
Cl.O=C1OC(CN2CCOCC2)CN1/N=C/c1ccc([N+](=O)[O-])o1 (stereo not given) [Furaltadone HCl]	-0.375	0.0552	0.105	0.124
Cc1cc(OCCCS(C)(=O)=O)cc(C)c1-c1cccc(COc2ccc3c(c2)OC[C@H]3CC(=O)O)c1.Cc1cc(OCCCS(C)(=O)=O)cc(C)c1-c1cccc(COc2ccc3c(c2)OC[C@H]3CC(=O)O)c1.O	-0.174	0.036	-0.599	-1.06
CCCCCCCCCC(=O)N[C@@H](Cc1c[nH]c2ccccc12)C(=O)N[C@H](CC(N)=O)C(=O)N[C@@H](CC(=O)O)C(=O)N[C@@H]1C(=O)NCC(=O)N[C@H](CCCN)C(=O)N[C@@H](CC(=O)O)C(=O)N[C@@H](C)C(=O)N[C@@H](CC(=O)O)C(=O)NCC(=O)N[C@H](CO)C(=O)N[C@@H]([C@@H](C)CC(=O)O)C(=O)N[C@@H](CC(=O)c2ccccc2N)C(=O)O[C@@H]1C [Daptomycin]	-0.301	0.712	-0.202	0.255
NCC(=O)Nc1ccc(-n2nc(C(F)(F)F)cc2-c2ccc3c(ccc4ccccc43)c2)cc1	0.901	-1.22	-1.49	-2.18
COc1cc(NS(=O)(=O)c2ccc(N)cc2)nc(OC)n1 [Sulphadimethoxine]	-0.396	-0.0724	-0.399	-0.406
CNC(=O)c1cc(Oc2ccc(NC(=O)Nc3cc(C(C)(C)C)nn3-c3ccc4ncccc4c3)c(F)c2)ccn1 [DCC-2036 (Rebastinib)]	-0.373	0.381	0.102	0.349
O=C(/C=C/c1ccc(O)cc1)c1ccc(O)cc1O [Isoliquiritigenin]	-0.374	0.0707	-0.234	0.407
Cc1cnc(Nc2ccc(OCCN3CCCC3)cc2)nc1Nc1cccc(S(=O)(=O)NC(C)(C)C)c1	-0.384	-0.175	0.289	0.165
O=C1CCc2ccc(OCCCCN3CCN(c4cccc(Cl)c4Cl)CC3)cc2N1 [Aripiprazole]	-0.24	0.423	0.273	0.298
Cc1nccn1CC1CCc2c(c3ccccc3n2C)C1=O.Cl (stereo not given) [Ondansetron HCl]	-0.197	0.644	0.442	-0.0188
Cc1cc(Nc2ncc(Cl)c(Nc3ccccc3S(=O)(=O)C(C)C)n2)c(OC(C)C)cc1C1CCNCC1	-0.411	-0.891	-0.496	-0.824
CCCN[C@H]1CCc2nc(N)sc2C1 [Pramipexole]	0.539	0.572	0.486	0.41
CN(C)CCc1c[nH]c2ccc(CS(=O)(=O)N3CCCC3)cc12.O=C(O)CC(O)C(=O)O [Almotriptan Malate]	-0.118	-0.132	-0.226	0.233
COc1cc2nccc(Oc3ccc(NC(=O)Nc4ccc(F)cc4F)c(F)c3)c2cc1OC	-0.697	0.0289	0.313	-0.0659
COc1cc(OC)c(NC(=O)Nc2cc(C)on2)cc1Cl	0.42	0.0902	-0.933	-1.91
Cc1c(NC(=O)c2cccnc2)c(=O)n(-c2ccccc2)n1C [Nifenazone]	-0.0678	0.0607	-0.0812	-0.0904
O=C(O)Cn1nnc(-c2cc(N3CCC(Oc4cc(F)ccc4Br)CC3)no2)n1	-0.714	-0.411	0	-0.137

Reprinted at random: 4 records from the list
SMILES	OMR-Perf [1]	Prob-Test [2]	Prob-Naive [3]	Prob-Train [4]
CCCCCCCCCC(=O)N[C@@H](Cc1c[nH]c2ccccc12)C(=O)N[C@H](CC(N)=O)C(=O)N[C@@H](CC(=O)O)C(=O)N[C@@H]1C(=O)NCC(=O)N[C@H](CCCN)C(=O)N[C@@H](CC(=O)O)C(=O)N[C@@H](C)C(=O)N[C@@H](CC(=O)O)C(=O)NCC(=O)N[C@H](CO)C(=O)N[C@@H]([C@@H](C)CC(=O)O)C(=O)N[C@@H](CC(=O)c2ccccc2N)C(=O)O[C@@H]1C [Daptomycin]	-0.301	0.712	-0.202	0.255
COc1cc2nccc(Oc3ccc(NC(=O)Nc4ccc(F)cc4F)c(F)c3)c2cc1OC	-0.697	0.0289	0.313	-0.0659
N#Cc1c(Oc2ccc(F)c(NC(=O)Cc3cccc(C(F)(F)F)c3)c2)ccc2nc(NC(=O)C3CC3)sc12	0.025	0.513	0.227	0.553
COc1cc(NS(=O)(=O)c2ccc(N)cc2)nc(OC)n1 [Sulphadimethoxine]	-0.396	-0.0724	-0.399	-0.406
